In PubChem BioAssay AID248 (DTP/NCI, 2004) one finds survivor count and T/C data, which are given here for 27 molecules.

For this experiment, the system named is L1210 leukemia ip in BDF1 mice, survival T/C. Nature of the experiment: NCI In Vivo Anticancer Drug Screen. Data for tumor model L1210 Leukemia (intraperitoneal) in B6D2F1 (BDF1) mice. The following applies: T/C endpoint: mean survival time, higher T/C = longer survival.
[1] abbreviates: dose: 100.0 mg/kg/injection, schedule: Q01DX009 (ip), vehicle: saline.
Setting [2] is: dose: 200.0 mg/kg/injection, schedule: Q01DX009 (ip), vehicle: saline.
Setting [3] is: dose: 100.0 mg/kg/injection, schedule: Q01DX001 (ip), vehicle: saline.
Where [4] appears, read: dose: 200.0 mg/kg/injection, schedule: Q01DX001 (ip), vehicle: saline.
Setting [5] is: dose: 400.0 mg/kg/injection, schedule: Q01DX001 (ip), vehicle: saline.
The mark [6] stands for this setting: dose: 400.0 mg/kg/injection, schedule: Q04DX002 (ip), vehicle: saline with Tween-80.
[7] abbreviates: dose: 80.0 mg/kg/injection, schedule: Q01DX001 (ip), vehicle: saline.
[8] abbreviates: dose: 400.0 mg/kg/injection, schedule: Q04DX002 (ip), vehicle: Klucel (hydroxypropylcellulose) (HPC).
Where [9] appears, read: dose: 50.0 mg/kg/injection, schedule: Q04DX002 (ip), vehicle: saline with Tween-80.
The mark [10] stands for this setting: dose: 200.0 mg/kg/injection, schedule: Q04DX002 (ip), vehicle: saline with Tween-80.
Setting [11] is: dose: 300.0 mg/kg/injection, schedule: Q01DX001 (ip), vehicle: saline.

The list does not hold the whole screen: it gathers tests that were run many times, whatever their T/C, doses with no T/C, and many T/C values between a quarter and a half above the control. Further doses and runs are listed elsewhere. T/C: endpoint of the treated group in % of that of the vehicle group. Some doses have a count of surviving animals in place of a T/C: the source holds a T/C of zero for them, seemingly a mark for toxic or unscored doses. Some doses without a T/C left all or most animals alive at the check, yet need not have been tolerated: survival well below the control is almost never listed, so the zero probably covers shortened survival too. Counts of survivors are from the toxicity check (mostly the fifth day) where no day follows; animals may have died later. Schedule codes are those of the source, read here as Q, the interval in days (D) or hours (H), X, the number of doses. Some schedule codes hold Z or #, which are not explained here. Where survival is the endpoint, this PubChem deposit counts one and a half times the control or more as active, and values a quarter to a half above the control carry no call in these data; other NCI protocols may use other cut-offs.

For the molecule `CN(C)CC[CH2][Sn]([CH3])([CH3])[CH3]`, the survivor count is, setting by setting: (dose: 50.0 mg/kg/injection, schedule: Q01DX009 (ip), vehicle: saline) 0 of 3; under setting [1], 0 of 3; under setting [2], 0 of 3.

For `CCOC(=O)CN=NNc1ccc(C(=O)OCC)cc1`, the survivor count by setting is: (dose: 100.0 mg/kg/injection, schedule: Q01DX009 (ip), vehicle: other) 3 of 6; (dose: 200.0 mg/kg/injection, schedule: Q04DX003 (ip), vehicle: other) 3 of 6; (dose: 400.0 mg/kg/injection, schedule: Q01DX001 (ip), vehicle: other) 2 of 6.

Consider `CN1CCC=C(CN2c3ccccc3Sc3ccc(Cl)cc32)C1`, for which the T/C (dose: 25.0 mg/kg/injection, schedule: Q04DX003 (ip), vehicle: saline) was 128 % of control. Also, the survivor count runs as follows: (dose: 100.0 mg/kg/injection, schedule: Q04DX003 (ip), vehicle: saline) 6 of 6; (dose: 200.0 mg/kg/injection, schedule: Q04DX003 (ip), vehicle: saline) 2 of 6; (dose: 400.0 mg/kg/injection, schedule: Q04DX003 (ip), vehicle: saline) 0 of 6.

As for `CCC(=O)OC1(c2ccccc2)CCN(C)CC1C` (stereo not drawn), the survivor count under setting [3] is recorded as 2 of 6, the survivor count under setting [4] is reported as 0 of 6 and the survivor count under setting [5] is reported as 0 of 6.

Turning to `CS(=O)(=O)OCCCCCOS(C)(=O)=O`, under “dose: 25.0 mg/kg/injection, schedule: Q01DX015 (ip), vehicle: saline”, the T/C was 128 % of control. The survivor count runs as follows: (dose: 80.0 mg/kg/injection, schedule: Q01DX001 (ip), vehicle: carboxymethylcellulose (CMC)) 0 of 4; (dose: 100.0 mg/kg/injection, schedule: Q01DX001 (ip), vehicle: carboxymethylcellulose (CMC)) 1 of 4; (dose: 100.0 mg/kg/injection, schedule: Q01DX015 (ip), vehicle: saline) 0 of 6; (dose: 200.0 mg/kg/injection, schedule: Q01DX001 (ip), vehicle: carboxymethylcellulose (CMC)) 0 of 4; (dose: 400.0 mg/kg/injection, schedule: Q01DX001 (ip), vehicle: carboxymethylcellulose (CMC)) 0 of 4.

Turning to `OC(/C=C/C(O)c1ccccc1)c1ccccc1` (stereo not drawn), the survivor count by setting is: (dose: 100.0 mg/kg/injection, schedule: Q04DX003 (ip), vehicle: Klucel (hydroxypropylcellulose) (HPC)) 1 of 6; (dose: 200.0 mg/kg/injection, schedule: Q04DX003 (ip), vehicle: Klucel (hydroxypropylcellulose) (HPC)) 0 of 6; (dose: 400.0 mg/kg/injection, schedule: Q04DX003 (ip), vehicle: Klucel (hydroxypropylcellulose) (HPC)) 0 of 6.

As for `O=P(O)(Oc1cccc(Cl)c1)Oc1cccc(Cl)c1`, the survivor count under setting [6] is on record as 2 of 3.

For `CCCCCCCCCCCCNC`, the survivor count reads like this: (dose: 100.0 mg/kg/injection, schedule: Q04DX003 (ip), vehicle: saline with Tween-80) 3 of 6; (dose: 200.0 mg/kg/injection, schedule: Q04DX003 (ip), vehicle: saline with Tween-80) 6 of 6; (dose: 400.0 mg/kg/injection, schedule: Q04DX003 (ip), vehicle: saline with Tween-80) 0 of 6.

With `CCCCC(/C=N\NC(=O)c1ccc[n+](C)c1)=C/c1ccccc1`, for the setting “dose: 400.0 mg/kg/injection, schedule: Q01DX001 (ip), vehicle: saline with Tween-80”, the survivor count was 0 of 6.

For the molecule `CC1(C)N=C(N)N=C(N)N1c1cccc(CCCCc2cccc(N)c2)c1`, the survivor count reads like this: (dose: 40.0 mg/kg/injection, schedule: Q01DX001 (ip), vehicle: saline) 2 of 4; under setting [7], 0 of 4; under setting [3], 0 of 4; under setting [4], 0 of 4; under setting [5], 0 of 4.

As for `CCS(=O)(=O)/C=C/c1ccc2ccccc2n1`, the survivor count under setting [8] is listed as 0 of 3.

For the molecule `COC(=O)C(Br)C(=O)OC`, the survivor count runs as follows: under setting [9], 1 of 3; (dose: 100.0 mg/kg/injection, schedule: Q04DX002 (ip), vehicle: saline with Tween-80) 0 of 3; under setting [10], 0 of 3; under setting [6], 0 of 3.

For the molecule `CC1(C)N=C(N)N=C(N)N1c1cccc(C(=O)Nc2cccc(S(=O)(=O)F)c2)c1`, the survivor count is recorded as 3 of 6 under setting [1]; 3 of 6 under setting [2]; 0 of 6 (dose: 300.0 mg/kg/injection, schedule: Q01DX009 (ip), vehicle: saline); 0 of 6 under setting [5]; 0 of 6 (dose: 400.0 mg/kg/injection, schedule: Q01DX009 (ip), vehicle: saline).

Regarding `Cc1ccc(Nc2cc(C)nc(N)n2)cc1`, the survivor count is 0 of 6 (dose: 50.0 mg/kg/injection, schedule: Q01DX Z (ip), vehicle: methylcellulose (MC)); 0 of 6 (dose: 100.0 mg/kg/injection, schedule: Q01DX Z (ip), vehicle: methylcellulose (MC)); 0 of 6 (dose: 200.0 mg/kg/injection, schedule: Q01DX Z (ip), vehicle: methylcellulose (MC)).

`c1ccc2c(c1)[nH]c1c[n+]3c(c[n+]12)[nH]c1ccccc13`: the survivor count under setting [5] was 0 of 4.

Consider `CCCCCCCCCCCCCCC[n+]1cccc(C#N)c1`, for which the survivor count by setting is: (dose: 10.0 mg/kg/injection, schedule: Q01DX001 (ip), vehicle: saline) 6 of 6; (dose: 75.0 mg/kg/injection, schedule: Q01DX001 (ip), vehicle: saline) 1 of 6; (dose: 150.0 mg/kg/injection, schedule: Q01DX001 (ip), vehicle: saline) 0 of 6; under setting [11], 0 of 6.

Take `O=C(/C=C/c1ccccc1)N/N=C/c1cccs1`: the survivor count (dose: 400.0 mg/kg/injection, schedule: Q01DX009 (ip), vehicle: Klucel (hydroxypropylcellulose) (HPC)) was 6 of 6.

On to `CC1=C[S+](c2ccccc2)c2cccc3cc4ccccc4c1c23` (stereo not drawn), for which the survivor count reads like this: (dose: 5.0 mg/kg/injection, schedule: Q01DX009 (ip), vehicle: saline with Tween-80) 1 of 6; (dose: 10.0 mg/kg/injection, schedule: Q01DX009 (ip), vehicle: saline with Tween-80) 2 of 6.

As to `Cc1cc(C)c(C(=O)c2ccccc2C(=O)OC(=O)c2ccccc2C(=O)c2c(C)cc(C)cc2C)c(C)c1`, under setting [9], the T/C is 132 % of control. Further, the survivor count under setting [10] is reported as 3 of 3.

Consider `NC1=NNC(N)=NN1`, for which the survivor count under setting [2] was 0 of 3.

For the molecule `CN(C)Cc1cc(Cl)ccc1O`, the survivor count reads like this: (dose: 200.0 mg/kg/injection, schedule: Q04DX002 (ip), vehicle: Klucel (hydroxypropylcellulose) (HPC)) 0 of 3; under setting [8], 0 of 3.

Take `NC(Cc1c[nH]c2c(N(CCCl)CCCl)cccc12)C(=O)O` (stereo not drawn): the T/C is 140 % of control (dose: 10.0 mg/kg/injection, schedule: Q01DX Z (ip), vehicle: methylcellulose (MC)) and 129 % of control (dose: 20.0 mg/kg/injection, schedule: Q01DX Z (ip), vehicle: methylcellulose (MC)).

As for `Cc1cc(CSC(=N)N)c(CSC(=N)N)cc1C`, the survivor count reads like this: under setting [7], 0 of 6; under setting [3], 0 of 6; under setting [4], 0 of 6; under setting [5], 0 of 6.

Consider `CCn1c(COc2ccc(Cl)cc2Cl)c(COC(=O)c2cccc(Cl)c2)c2ccccc21`, for which the survivor count (dose: 400.0 mg/kg/injection, schedule: Q01DX009 (ip), vehicle: carboxymethylcellulose (CMC)) is 3 of 3.

`Cc1c(C(=O)NN)sc2ccccc12`: the survivor count by setting is: under setting [3], 2 of 4; under setting [4], 2 of 4; under setting [5], 0 of 4.

On to `CCCCC(=O)NC1CCCCC1`, for which the survivor count under setting [11] is listed as 0 of 6.

With `C[N+](C)(C)CCCCCC[Si](C)(C)C`, the survivor count is, setting by setting: under setting [7], 1 of 4; under setting [3], 0 of 4; under setting [4], 0 of 4; under setting [5], 0 of 4.
